This list was built around the results that the source calls inconclusive (neither active nor inactive); the mix of calls is not that of the screen. Potencies of inconclusive entries are doubtful fits and often do not repeat. Activity calls are given as the source filed them. Calls follow the shape of the dose curve; as a rule, active = well fitted inhibition curve with a large enough effect; inconclusive = small, poorly fitted or top-dose-only effect; inactive = flat fitted curve, though single readings scatter.
Each compound was assayed against Galactokinase (Homo sapiens) (UniProt P51570) (assay: Confirmation Assay for Inhibitors of Human Galactokinase (GALK)). Conditions: purified GALK, Kinase-Glo ATP depletion luminescence.
Source text: NIH Molecular Libraries Probe Production Centers Network [MLPCN] NIH Chemical Genomics Center [NCGC] MLPCN Grant: R03 MH085689-01 Assay Submitter (PI): Kent Lai (University of Utah School of Medicine, 50 N Mario Capecchi Drive, Salt Lake City, UT 84132) NCGC Assay Overview Inherited deficiency of galactose-1-phosphate uridyltransferase (GALT) can result in a potentially lethal disorder called Classic Galactosemia (OMIM 230400). Several lines of evidence indicate that an elevated level of galactose-1-phosphate (gal-1-p), the product of galactokinase (GALK), is a major, if not sole, pathogenic mechanism in patients with classic galactosemia. Therefore, finding inhibitors of GALK is a potential novel therapy for this inherent metabolic disease and is the long term goal of this project. Active compounds observed in the qHTS GALK assay (AID: 1868) were cherry picked and re-screened for validation. GALK (provided by Kent Lai) was assayed using ATP and D-(+)-Galactose (Sigma-Aldrich cat# G0750) as substrates. Promega Kinase-Glo Plus (cat# V3774) technology was used to detect the residual ATP following kinetic reaction. Briefly, the Kinase-Glo Plus contains Ultra-Glo [1] luciferase and D-luciferin which generates a bioluminescence signal from the remaining ATP. Kinase reactions with and without GALK were used as negative and positive controls together with Protein Tyrosine Phosphatase CD45 inhibitor (EMD Bioscience cat# 540215) which is shown to inhibit GALK activity.
NCGC Assay Protocol Summary: Three uL/well of ATP-buffer solution (35 uM ATP, 20mM HEPES pH8.0, 5 mM MgCl2, 60 mM NaCl, 1 mM DTT, 0.01% BSA final concentration) was dispensed into 1536-well, assay plates (Greiner, solid white medium-binding plates) with Aurora Discovery BioRAPTR Flying Reagent Dispenser (FRD; Beckton-Dickenson). Compound and control solution (23 nL) was transferred to the assay plate using the Kalypsys 1536-pin tool apparatus. One uL/well GALK-galactose solution (5 nM GALK, 100 uM galactose, 20 mM HEPES pH8.0, 5 mM MgCl2, 60 mM NaCl, 1 mM DTT, 0.01% BSA final concentration) was then added using the FRD yielding a total kinase reaction volume of 4 uL/ well. After 1 hour of room temperature incubation, 4 uL Kinase-Glo Plus reagent was added for a final assay volume of 8 uL/well. Luminescence was detected with the ViewLux plate reader (Perkin Elmer, Waltham, MA) after 2 min incubation using a 1 sec exposure time and 2x binning.

Sequences of proteins named here, by UniProt entry; tags and fusion partners are left off. A change or cut given only in a name is not applied to a line headed by its entry.
UniProt P51570: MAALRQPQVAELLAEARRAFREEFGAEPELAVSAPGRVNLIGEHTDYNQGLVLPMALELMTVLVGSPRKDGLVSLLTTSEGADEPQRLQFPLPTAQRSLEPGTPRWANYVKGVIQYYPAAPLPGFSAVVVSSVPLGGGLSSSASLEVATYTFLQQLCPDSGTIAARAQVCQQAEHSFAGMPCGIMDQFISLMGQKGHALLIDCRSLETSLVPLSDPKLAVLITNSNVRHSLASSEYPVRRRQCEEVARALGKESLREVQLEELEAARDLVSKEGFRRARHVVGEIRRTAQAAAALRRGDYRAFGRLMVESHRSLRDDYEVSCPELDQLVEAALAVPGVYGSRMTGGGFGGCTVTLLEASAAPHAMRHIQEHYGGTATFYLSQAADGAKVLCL

SMILES	Potency
O=C1C(=O)c2ccccc2-c2ccccc21	active: 1.88 µM
CCn1nc(-c2ccccc2)nc2c(=O)n(C)c(=O)nc1-2	active: 0.595 µM
O=C1NC(=S)N(Cc2ccco2)C(=O)/C1=C\c1cccs1	inconclusive: 33.5 µM [falling, partial curve]
Cc1ccccc1N1C(=O)/C(=C/c2ccco2)C(=O)NC1=S	inconclusive: 42.1 µM [falling, partial curve]
COCCCn1c(N)c(C(=O)NCc2ccco2)c2nc3ccccc3nc21	inconclusive: 53 µM [falling, partial curve, poor fit]
O=c1cc(-c2ccc(O)c(O)c2)oc2cc(O)cc(O)c12	inconclusive: 47.3 µM [falling, partial curve]

— PubChem BioAssay AID2015 (National Center for Advancing Translational Sciences (NCATS), 2009)
